Reference: publication PMC6960452
Results are given in words; binding and its absence hold for the method and conditions named. Binding seen in cells or lysates may run through a third protein. Some results given as binding are weak or reduced against the parent protein; the word gives no strength. Tags and fused reporters may be left off the sequences shown.

Protein sequences, listed by entry. Tags and fused reporters are not part of them. Lines headed by an entry give the natural chain unless they say otherwise; changes in a name come on top. Residues count along the entry.
UniProt Q5S006: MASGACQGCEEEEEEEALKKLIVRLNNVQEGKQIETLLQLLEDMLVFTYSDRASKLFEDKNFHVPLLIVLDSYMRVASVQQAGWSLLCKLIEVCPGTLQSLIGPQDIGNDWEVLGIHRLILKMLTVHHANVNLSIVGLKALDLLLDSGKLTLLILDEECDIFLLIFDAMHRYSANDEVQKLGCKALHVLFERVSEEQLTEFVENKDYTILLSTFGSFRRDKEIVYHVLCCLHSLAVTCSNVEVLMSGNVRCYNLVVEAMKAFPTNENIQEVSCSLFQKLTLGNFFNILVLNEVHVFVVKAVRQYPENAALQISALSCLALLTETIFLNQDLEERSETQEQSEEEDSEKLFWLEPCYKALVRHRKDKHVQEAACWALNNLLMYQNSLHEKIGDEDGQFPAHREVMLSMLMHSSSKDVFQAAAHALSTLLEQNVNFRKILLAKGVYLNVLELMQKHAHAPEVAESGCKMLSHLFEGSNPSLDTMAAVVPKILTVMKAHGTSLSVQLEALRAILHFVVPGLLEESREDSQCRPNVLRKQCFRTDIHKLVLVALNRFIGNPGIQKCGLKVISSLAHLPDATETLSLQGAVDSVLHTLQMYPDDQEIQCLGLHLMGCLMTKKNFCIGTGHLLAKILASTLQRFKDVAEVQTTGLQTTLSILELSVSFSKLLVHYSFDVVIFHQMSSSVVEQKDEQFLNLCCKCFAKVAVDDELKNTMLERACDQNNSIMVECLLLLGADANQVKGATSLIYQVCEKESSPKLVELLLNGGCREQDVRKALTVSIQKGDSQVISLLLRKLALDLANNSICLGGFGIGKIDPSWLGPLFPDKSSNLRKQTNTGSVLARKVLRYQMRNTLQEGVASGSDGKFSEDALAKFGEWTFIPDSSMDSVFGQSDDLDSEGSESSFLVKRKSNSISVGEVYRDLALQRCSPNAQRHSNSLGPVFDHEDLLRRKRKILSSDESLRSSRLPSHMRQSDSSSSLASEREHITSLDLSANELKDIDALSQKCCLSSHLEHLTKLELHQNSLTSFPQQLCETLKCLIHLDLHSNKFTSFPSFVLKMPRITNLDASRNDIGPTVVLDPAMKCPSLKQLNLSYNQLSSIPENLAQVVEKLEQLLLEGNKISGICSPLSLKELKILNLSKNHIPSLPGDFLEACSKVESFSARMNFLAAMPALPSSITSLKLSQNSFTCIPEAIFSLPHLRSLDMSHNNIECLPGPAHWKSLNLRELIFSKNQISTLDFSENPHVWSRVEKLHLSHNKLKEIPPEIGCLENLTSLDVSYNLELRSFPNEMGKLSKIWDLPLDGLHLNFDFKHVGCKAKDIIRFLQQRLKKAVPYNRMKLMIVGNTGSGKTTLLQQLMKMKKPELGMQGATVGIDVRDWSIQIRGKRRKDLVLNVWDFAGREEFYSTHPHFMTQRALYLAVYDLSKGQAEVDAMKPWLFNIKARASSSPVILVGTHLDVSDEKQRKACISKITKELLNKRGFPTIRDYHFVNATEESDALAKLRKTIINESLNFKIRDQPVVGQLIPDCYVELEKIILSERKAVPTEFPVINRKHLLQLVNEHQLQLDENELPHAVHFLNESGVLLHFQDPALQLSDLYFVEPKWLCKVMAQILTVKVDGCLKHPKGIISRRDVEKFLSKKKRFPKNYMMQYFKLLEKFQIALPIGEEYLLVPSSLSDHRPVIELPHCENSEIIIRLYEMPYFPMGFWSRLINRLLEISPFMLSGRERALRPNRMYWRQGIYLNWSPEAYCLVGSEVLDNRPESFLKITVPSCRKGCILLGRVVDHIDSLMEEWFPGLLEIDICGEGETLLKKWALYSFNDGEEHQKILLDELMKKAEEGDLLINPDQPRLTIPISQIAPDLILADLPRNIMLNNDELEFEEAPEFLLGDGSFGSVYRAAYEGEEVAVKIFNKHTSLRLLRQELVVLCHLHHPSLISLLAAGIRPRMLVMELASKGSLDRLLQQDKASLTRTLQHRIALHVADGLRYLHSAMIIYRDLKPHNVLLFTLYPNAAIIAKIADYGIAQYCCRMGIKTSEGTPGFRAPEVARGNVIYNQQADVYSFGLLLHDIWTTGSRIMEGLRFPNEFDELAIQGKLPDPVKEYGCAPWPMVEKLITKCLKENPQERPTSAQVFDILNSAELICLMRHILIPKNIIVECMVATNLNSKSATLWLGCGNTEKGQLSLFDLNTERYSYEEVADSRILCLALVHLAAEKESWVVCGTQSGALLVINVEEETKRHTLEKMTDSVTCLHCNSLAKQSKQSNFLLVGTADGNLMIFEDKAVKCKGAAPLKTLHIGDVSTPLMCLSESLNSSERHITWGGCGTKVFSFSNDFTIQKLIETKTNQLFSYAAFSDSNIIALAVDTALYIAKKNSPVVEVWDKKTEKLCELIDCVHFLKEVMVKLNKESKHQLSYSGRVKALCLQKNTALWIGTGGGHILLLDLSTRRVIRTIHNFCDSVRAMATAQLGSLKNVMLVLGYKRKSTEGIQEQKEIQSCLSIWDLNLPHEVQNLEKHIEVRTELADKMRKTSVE
LRRK2-d1 (a.a. 1–1,515): residues 1-1515 of Q5S006

Key:
[1] = biological target: LRRK2(D1994A), kinase-dead (V5-tagged) (mouse) (UniProt Q5S006); test: co-IP; HEK293 cells transfected with PERK and either MARCH5, MULAN or Parkin along with LRRK2 or mutant LRRK2; lysates immunoprecipitated with antibody against Myc or V5, immunoblot (Fig 6A)
[2] = biological target: LRRK2 (wild type, V5-tagged) (mouse) (UniProt Q5S006); test: as above
[3] = biological target: LRRK2-d1 (a.a. 1–1,515) (mouse) (UniProt Q5S006); test: co-IP; HEK293 cells transfected with deletion constructs of LRRK2(G2019S) and E3 ubiquitin ligases; lysates (TNE buffer) immunoprecipitated with antibody against the V5 or HA epitope, immunoblot (Fig 3D)
[4] = biological target: LRRK2(S1292A), phosphorylation-defective (V5-tagged) (mouse) (UniProt Q5S006); test: co-IP; HEK293 cells transfected with LRRK2(S1292A) or LRRK2(S1292D) and E3 ubiquitin ligases; lysates immunoprecipitated with antibody against Myc or V5 epitope, immunoblot (Fig 6C)

Measured: binding

B1: MULAN (Myc-tagged) (enzyme, UniProt Q8VCM5 1-352)
chain: MESGSRPSLGQVILLGTSSMVTAVLYSIYRQKAQVAQELKGAKKIHLGEDLKGILSEAPGKCVPYAVIEGAVRSVKETLNSQFVENCKGVIQRLSLQEHKMVWNRTTHLWNDYSKIIHQRTNTVPFDLVPHEDGVAVSVRVLKPLDSVDLGLETVYEKFHPSVQSFTDAIGHYISGERPKGIQETEEMLKVGATLTGIGELVLDNNAVRLQPPKQGMQYYLSSQDFDSLLHRQESSVRLWKILVLVFGFATCATLFFILRKQYLHRQERLRQQQLQEEFLEHEAQLLSQASPEDRESLKSACVVCLSNFKSCVFLECGHVCSCRQCYLALPEPKRCPICRREITRVIPLYNS
binds: all assays above
